The whole screen tested about 52,000 sequences, of which about 210 (0.4%) were called active.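 Rule for the calls: active = gene whose silencing raises cell survival under the drug, median off-target-corrected z-score across its silencing RNAs 2 or more; inactive = the rest.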 This is one part of the list.
Experiment: Resistance to Poly (ADP-Ribose) Polymerase inhibitor: Gene Identification via Genome-wide siRNA Screen
Conditions: mouse BRCA2 R2336H ES cells, olaparib, CellTiter-Glo viability; hits give high values
Method in brief: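 Mouse BRCA2 R2336H ES cells were reverse-transfected with siRNA (20 nM final), treated at 48 h with 500 nM olaparib, and read by CellTiter-Glo after 72 h. Scores: MAD-based z per siRNA, median per gene, seed off-target correction.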

| Sequence | z-score |
| --- | --- |
| GGAUUCGUAAACUUCAGAUTT against Igf2bp3 | inactive: -0.353 |
| GGAGGAACAGCAGAGAAGUTT against LOC230872 | inactive: 0.239 |
| GCGAGUGUAUGCUUGAGAATT against Hspa12b | inactive: 0.0912 |
| GGUGCUCCGAACAAGUUGATT against 2010110K16Rik | inactive: 1.12 |
| GCUACUACACGCAAGAUUUTT against Tex13 | inactive: -0.139 |
| GGCUACCAAGUGUACCAUUTT against Syt15 | inactive: -1.14 |
| GGUGCUUUUUUUGGAUCAATT against Olfr507 | inactive: -0.843 |
| GGACAAUUGAAAACUGCCUTT against Gpd1 | inactive: 1.88 |
| GGAAAUGAUCUCUUUUGGATT against Bbs2 | inactive: 0.41 |
| GCGAACCGAGAGUCUAUACTT against 4631402N15Rik | inactive: -1.04 |
| GGUGGUGAUUCACCUCCAATT against Tnfrsf12a | inactive: -0.839 |
| GGAAAAAGAUAGAACCAGATT against 1700108L22Rik | inactive: -0.213 |
| CGUUAACCACAGUGAGAGATT against Pvrl4 | inactive: 1.07 |
| GCAUCGAAUGUUUGAACCCTT against Gstm6 | inactive: -1.42 |
| CCAGGUCUAAAAGUAACAATT against Unc13b | inactive: 0.327 |
| CCAGAUUAUCCGUUUAAACTT against Ube2e2 | inactive: -0.251 |
| CCAGCAUGCAUCCAUUCUUTT against Mageb3 | inactive: -1.59 |
| GGAACGAGGAGUCAAUAGATT against 1110006O17Rik | inactive: 1.4 |
| GGAGAGGAGUUGGAUAGAUTT against Mobp | inactive: -0.762 |
| GGCUUUAUAUCAAGAUUUGTT against Lrrc2 | inactive: -0.658 |
| GGCUUCAGCUAACCAAGCUTT against Adat1 | inactive: 0.239 |
| GGGAUGAAAAAAUUGGAUATT against Chd1 | inactive: -0.311 |
| GGGAGGGAUGCAGUAAAUGTT against Acaa1 | inactive: -1.58 |
| CCCUCCAGCACUUGUUACATT against 4732427B05 | inactive: -2.04 |
| GGACCUGGUAUCUCUAUAUTT against Rasgrp4 | inactive: -0.16 |
| GGGAGUUCUGCUUUAUUGCTT against Bst2 | inactive: -0.0443 |

Single values from the results shown.
z-score with GGAUUCGUAAACUUCAGAUTT against Igf2bp3 reads inactive: -0.353
z-score with GCUACUACACGCAAGAUUUTT against Tex13 reads inactive: -0.139
z-score with GCGAACCGAGAGUCUAUACTT against 4631402N15Rik reads inactive: -1.04

Continued.

| Sequence | z-score |
| --- | --- |
| GGAAGUUUAUGAUGAUGUCTT against 2610317D23Rik | inactive: -0.802 |
| GGAGACACUGAACAUCUUATT against Kctd13 | inactive: 0.744 |
| CCUUAAUCGCAUCAAAUUATT against Slc1a3 | inactive: 1.24 |
| CCAACUUUCUCUUAGGAAATT against Gm580 | inactive: 0.9 |
| GGAGAUGUUGUUUGCUACUTT against D16H22S680E | inactive: 0.407 |
| GGGCUCAAGGUUAUUAAUGTT against Gjb1 | inactive: 2.72 |
| GGCUUAGGUGUCCGAGAAATT against Wfdc2 | inactive: -1.26 |
| GCUUCAGUAUAACCUAGAATT against Catsper2 | inactive: -0.59 |
| GCUGACAAUACUGAAUUGGTT against Pkhd1l1 | inactive: 1.32 |
| GCACCAGCCCUAUAAACUGTT against 1200004M23Rik | inactive: 0.873 |
| GGAAGAAGUACCCAUGCAATT against Olfr64 | inactive: -1.3 |
| GGUGCAUUAUAAGAAUCGCTT against Fhl1 | inactive: 1.1 |
| GGAGCAUUUUAUUCAGAUGTT against Rad23b | inactive: -2.04 |
| GGACUAUCUCAUCGGAACCTT against 4930403O06Rik | inactive: 0.342 |
| GGCUCUUCGAGACUUUGAGTT against D130016K21Rik | inactive: -2.73 |
| GGAAAACCUUGGACAGGAGTT against Olfr876 | inactive: -1.75 |
| GCCAGGAAUAGUGAUUAUUTT against Atp11c | inactive: -1.15 |
| GCACAUUCCUAAGACAAUCTT against Spag4l | inactive: 1.26 |
| GGGAUACGUCAUCUGUUAATT against Ilf3 | inactive: 0.836 |
| GCUGAACGUGAGAUUGUGCTT against Acta1 | inactive: -0.251 |
| GCAAGUCCUACAAUACAACTT against Tk1 | inactive: -0.837 |
| GGAAGUGAUACUGUCUAUATT against Rfx3 | inactive: -0.777 |
| GCAUCAUUGUCAAUCAUAUTT against Olfr578 | inactive: 0.585 |
| GCAAACGCAGUACUAUGGUTT against Pak2 | inactive: 0.255 |
| GAACCCUCAUGAGGGUUACTT against C1ql1 | inactive: 0.0584 |
| GGGAUUGGUUAUUUUACAUTT against 4632406N01Rik | inactive: -0.349 |

Some of the entries above, set out differently.
Sequence	z-score
GGAGGAACAGCAGAGAAGUTT against LOC230872	inactive: 0.239
GGGAUGAAAAAAUUGGAUATT against Chd1	inactive: -0.311

Continuation.

| Sequence | z-score |
| --- | --- |
| GGAAAAGGAAAAAUAACCUTT against Ptma | inactive: -1.05 |
| CGCUAGAAGGAUUAUACCUTT against Vps13c | inactive: -0.25 |
| GGCGAGUUUGUUCUCUUAGTT against Olfr11 | inactive: -0.705 |
| CCAGGAACCUAUUGAAUCUTT against D830019K17Rik | inactive: 2.67 |
| AGUUCGACUUUGACGACGGTT against Jph4 | inactive: 1.24 |
| GGGCCUAAAGGACUUGGCUTT against Dlgh4 | inactive: -0.142 |
| GGAGACACGGCCCUAAUCATT against Ddah2 | inactive: 2.44 |
| GGAUUUCGUGUGGAUGAAATT against D14Ertd500e | inactive: -1.16 |
| GGUGGGUGACACUUAAACATT against V1rg2 | inactive: -2.31 |
| GCAAACCAACAGAUGCUGCTT against 4930500C15Rik | inactive: -0.297 |
| GGGCCAAGUUCCGAAAGAATT against Otx3 | inactive: -2.29 |
| GGAGAAGGAUAGAGAUGGUTT against Phf5a | inactive: -2.98 |
| CCUACCAAAACGACUAUAUTT against Pnma3 | inactive: 0.795 |
| CGGCAUCUUUUUGAAUCAATT against 0610010D24Rik | inactive: 0.859 |
| GCAUCUCACGCUACAGAUUTT against Dock2 | inactive: -1.15 |
| GGAUAAACCUAUGAAUGAATT against B230358A15Rik | inactive: -0.539 |
| GCUACAUCACAUGCAGUUCTT against 6430517E21Rik | inactive: -1.06 |
| CCAAAAGGUUCGAGUUUCATT against Padi4 | inactive: -0.284 |
| CGAUCCAUGUUGUAAGCGCTT against 1700056P18Rik | inactive: -0.0835 |
| GCUGGUAUUUAAUAGAGGATT against 2610020O08Rik | inactive: 0.603 |
| GGUUUACUUCCCAUACCUGTT against Pold1 | inactive: -1.36 |
| CGAAGCUGUUCAUAAGUAUTT against Gsr | inactive: 1.26 |
| GGUAUAGUUAAAGUGAGAGTT against Sp8 | inactive: -1.1 |
| GCACAUGCCAACUCAUUCUTT against 1200007D18Rik | inactive: 1.15 |
| GCCCGUGUAGUGCUGGAUUTT against Tbca | inactive: -0.0124 |
| GGGAACACCUACCCUGUGUTT against Plpcd | inactive: -0.875 |

| Sequence | z-score |
| --- | --- |
| GGGCAUGUAUCCGAUUAGATT against 1200015A19Rik | inactive: 1.36 |
| GGUGCUAUUCAUCUGCACGTT against Prss15 | inactive: 2.13 |
| GGAAAAGACAAGGAAUAUGTT against Ube2r2 | inactive: 0.291 |
| UGCUGACGACAUCCCAUGCTT against Olfr255 | inactive: 1.3 |
| GGAGAUUUACACUUUACUATT against Spata4 | inactive: 0.469 |
| CCUAAAAUACUUUACCGGGTT against Bckdhb | inactive: 2.25 |
| GGUGACCAAGCAGAUAACATT against Prcc | inactive: 0.25 |
| CGCAAUUUGACAUUUGGAUTT against Plekhh2 | inactive: 0.683 |
| CCAACGUACCAGCAAUAGUTT against Rab8a | inactive: 0.312 |
| GGUGGCAAACUUCAUUUUATT against Sfrs2 | inactive: -1.87 |
| GGGUAAAACAAGAAUAUCATT against 2610027L16Rik | inactive: 0.127 |
| GGCAUUUGUGCUCUUCGGATT against Sctr | inactive: -0.165 |
| GGACAUGAUGAUGAUGAUGTT against Colm | inactive: -1.84 |
| CCAUUAUCAAGGAACAAGCTT against Itgb4 | inactive: 1.17 |
| GGAAGUCAAGGAAGCCUUCTT against Olfr368 | inactive: -1.18 |
| CGAGCCUAGAAAGAGUUGATT against B430119L13Rik | inactive: 1.2 |
| GGAUUGAAGAAGAAAAGUCTT against Creb1 | inactive: -1.52 |
| GGGACGUGAAGAUGAAGAATT against Fbp1 | inactive: -0.899 |
| GGCUCAGACCCUGUACUAATT against 15-Sep | inactive: -1.46 |
| CCUAAAUGGAUAGGGUUGCTT against 1700001C19Rik | inactive: -0.224 |
| GGAAGAGUGUAUCAUUCUUTT against Dusp9 | inactive: 1.33 |
| CCUACUGACGACUCUUAUATT against V2r16 | inactive: 0.309 |
| GCGAAAGAAAGUUUUGCUGTT against Ccm1 | inactive: 0.471 |
| GGUCACCUAAGUGCUUACGTT against Ceacam2 | inactive: -0.283 |
| GCUAGUUAAUGGUAACAUATT against Sult1d1 | inactive: -0.207 |
| CCCUAACUUGGAUAAGCUGTT against Nqo3a2 | inactive: 0.655 |

— PubChem BioAssay AID1347423 (Functional Genomics Laboratory (NCATS/FGL), 2020)
